# Results from patent US20220153790A1 (TECHNISCHE UNIVERSIT T M NCHEN, published 2022).
# Sequences of proteins named here, by UniProt entry; tags and fusion partners are left off. A change or cut given only in a name is not applied to a line headed by its entry.
# UniProt P08195: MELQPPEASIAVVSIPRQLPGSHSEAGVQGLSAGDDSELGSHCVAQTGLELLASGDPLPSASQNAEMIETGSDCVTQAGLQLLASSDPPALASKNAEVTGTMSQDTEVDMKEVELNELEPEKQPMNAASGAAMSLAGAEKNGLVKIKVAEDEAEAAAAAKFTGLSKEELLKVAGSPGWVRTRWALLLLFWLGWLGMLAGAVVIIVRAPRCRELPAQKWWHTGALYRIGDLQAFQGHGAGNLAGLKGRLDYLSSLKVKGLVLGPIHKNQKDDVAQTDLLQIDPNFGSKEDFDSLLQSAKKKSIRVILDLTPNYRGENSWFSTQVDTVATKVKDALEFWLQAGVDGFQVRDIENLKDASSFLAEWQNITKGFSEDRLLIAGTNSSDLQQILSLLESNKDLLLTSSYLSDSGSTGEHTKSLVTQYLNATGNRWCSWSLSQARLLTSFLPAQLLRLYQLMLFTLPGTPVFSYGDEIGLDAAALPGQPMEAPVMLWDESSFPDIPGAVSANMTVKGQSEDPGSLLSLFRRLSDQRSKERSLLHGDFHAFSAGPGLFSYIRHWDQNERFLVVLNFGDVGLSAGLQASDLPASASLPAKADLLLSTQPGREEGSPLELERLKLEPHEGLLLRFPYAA
# Results are given in words; binding and its absence hold for the method and conditions named. Some binding calls cover weakened binding; strength is not graded here.
# Experiments:
# [1] = biological target: hCD98hcED with N-terminal Strep-tag II (variant for crystallization) (human) (UniProt P08195); experiment: size exclusion chromatography of the 1:1 complex and crystal structure
# [2] = biological target: hCD98hcED with N-terminal Strep-tag II (variant for crystallization) (human) (UniProt P08195); experiment: size exclusion chromatography of the 1:1 mixture
# [3] = biological target: native human CD98hc on human cancer cell lines (human) (UniProt P08195); experiment: immunofluorescence microscopy, 1 µM conjugate
# [4] = biological target: native human CD98hc on human cancer cell lines (human) (UniProt P08195); experiment: flow cytometry on SU-DHL-4, Raji, Ramos, DU-145, PC-3 and Caco-2 cells, 1 µM conjugate
# [5] = biological target: native human CD98hc on human cancer cell lines (human) (UniProt P08195); experiment: flow cytometry of human cancer cell lines with 1 µM D11vs-PAS200-Cy5.5
# [6] = biological target: native human CD98hc on human cancer cell lines (human) (UniProt P08195); experiment: cytofluorometry and immunofluorescence microscopy
# [7] = biological target: native human CD98hc on human cancer cell lines (human) (UniProt P08195); experiment: competition with D11vs-PAS200-Cy5.5 on cells, 10-fold molar excess, flow cytometry and microscopy
binder,measurement,setting,value
"lipocalin variant P3D11 (designed binder, produced soluble in E. coli JM83, monomeric; also called Anticalin P3D11; not shown: C-terminal His6-tag (plasmid pNGAL118)) QDSTSDLIPAPPLSKVPLQQNFQDNQFHGKWYVVGRAGNTGLREDKDPGKMFATIYELKEDKSYNVTYVWFGQKKCMYSIGTFVPGSQPGEFTLGNIKSAPGRTSWLVRVVSTNYNQHAMVFFKSVTQNREGFAITLYGRTKELTSELKENFIRFSKSLGLPENHIVFPVPIDQCIDG",binding,[1],binds
same,binding,[2],binds
"D11vs-PAS200-Cy5.5 (designed binder, Sulfo-Cyanine5.5 coupled by maleimide chemistry to the engineered C-terminal Cys, also called Cy5.5 labeled PASylated D11vs; Cy5.5-labeled D11vs-PAS200; not shown: C-terminal PAS200 polypeptide (200 Pro, Ala and Ser residues) with an engineered Cys at its end) QDSTSDLIPAPPLSKVPLQQNFQDNQFHGKWYVVGRAGNTGLREDKDPGKMFATIYELKEDKSYNVTYVWSGQKKCMYSIVTFVPGSQPGEFTLGNIKSAPGRTSWLVRVVSTNYNQHAMVFFKSVTQNREGFAITLYGRTKELTSELKENFIRFSKSLGLPENHIVFPVPIDQCIDG",binding,[3],binds
same,binding,[4],binds
same,binding,[5],binds
same,binding,[6],binds
"D11vs-PAS200 (designed binder, not shown: small tags and cut ends) QDSTSDLIPAPPLSKVPLQQNFQDNQFHGKWYVVGRAGNTGLREDKDPGKMFATIYELKEDKSYNVTYVWSGQKKCMYSIVTFVPGSQPGEFTLGNIKSAPGRTSWLVRVVSTNYNQHAMVFFKSVTQNREGFAITLYGRTKELTSELKENFIRFSKSLGLPENHIVFPVPIDQCIDG",binding,[7],binds
